According to the supplement of paper PMC12889115:
This is one part of the list. These are raw signals, not scaled to a control.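 First-pass screen: polymyxin B was added at a level that permeabilizes the Salmonella outer membrane while sparing the inner membrane. DMSO wells, with and without polymyxin B, defined maximum growth. Because plates differed from one another, each plate's data were ranked separately and the compounds with the lowest OD600 were carried forward as hits.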

Test system: Salmonella enterica serovar Typhimurium SL1344
Assay: bacterial growth OD600 after 18 h with compound and polymyxin B; higher = more bacterial growth (less inhibition)
Details: 50 µM, Mueller-Hinton broth

SMILES | bacterial growth OD600 (polymyxin B 0.75 µg/mL) | bacterial growth OD600 (polymyxin B 1 µg/mL)
COc1cccc(N2C(=O)CN(C(=O)c3ccc4[nH]ccc4c3)CC2C)c1 (stereo unspecified) | 0.917 | 
CC(=O)N1CCC(C(=O)N2CCCC(Nc3ccc(C(C)C)cc3)C2)CC1 (stereo unspecified) |  | 0.971
CCC1CN(CCC(=O)NCCCOc2cccnc2)Cc2ccc(Cl)cc2O1 (stereo unspecified) | 0.838 | 
Cc1ncoc1C(=O)N1CCCC(CNC(=O)c2ccc(-c3ccccc3)cc2)C1 (stereo unspecified) |  | 1.15
CC(CCn1cccn1)NC(=O)c1cn(Cc2ccccc2F)nn1 (stereo unspecified) |  | 1.11
COc1cc(CN2CCC(c3nc(-c4ccncc4)ncc3-c3cccc(C)c3)CC2)ccc1F | 0.957 | 
CCCCN(Cc1ccccc1)C(=O)CCc1nnc(C(OC)c2ccccc2)o1 (stereo unspecified) | 0.002 | 
COc1ccc(CCN2CCCC(CN(C)Cc3ccc(F)c(OC)c3)C2)cc1 (stereo unspecified) |  | 0.655
COc1ccc(CCN2CCCC(CN(C)Cc3ccc(OC)cc3)C2)cc1 (stereo unspecified) | 0.8 | 
O[C@@H]1CN(Cc2cccn2-c2ccccn2)CC[C@H]1N1CCN(c2ccccn2)CC1 | 0.838 | 
Cc1csc(SCC(=O)N2CCc3c(cnc(C)c3CNS(=O)(=O)c3cccs3)C2)n1 | 0.78 | 
COc1cccc(OCc2cc(C(=O)N(C)Cc3nc4cc(Cl)ccc4[nH]3)no2)c1 |  | 0.023
O=C(CSc1ccccc1)NC1CCCN(c2ccc(C(F)(F)F)cn2)C1 (stereo unspecified) |  | 0.839
COc1ccccc1CNC(=O)c1c(OC)cc(=O)n2c1CCN(Cc1ccc3c(c1)CCO3)CC2 | 0.847 | 
CN(C)C1(C(=O)N[C@@H](Cc2ccccc2)C(N)=O)Cc2ccccc2C1 | 0.778 | 
C=CCS(=O)(=O)N1CCC(C2CCN(CC(C)C)CC2)C1 (stereo unspecified) | 0.897 | 

Some of these compounds in order of molar mass, largest number first.
SMILES | bacterial growth OD600 (polymyxin B 0.75 µg/mL) | bacterial growth OD600 (polymyxin B 1 µg/mL)
COc1ccccc1CNC(=O)c1c(OC)cc(=O)n2c1CCN(Cc1ccc3c(c1)CCO3)CC2 | 0.847 | 
COc1cc(CN2CCC(c3nc(-c4ccncc4)ncc3-c3cccc(C)c3)CC2)ccc1F | 0.957 | 
COc1ccc(CCN2CCCC(CN(C)Cc3ccc(F)c(OC)c3)C2)cc1 (stereo unspecified) |  | 0.655

Going on with the list:

SMILES | bacterial growth OD600 (polymyxin B 0.75 µg/mL) | bacterial growth OD600 (polymyxin B 1 µg/mL)
COC(=O)c1ccccc1-c1cc(C)cc2c1OC(CNC(=O)C(C)c1n[nH]c(=O)c3ccccc13)C2 (stereo unspecified) | 0.648 | 
O=C(NC1CC(=O)N(CCc2ccc(F)cc2)C1)C1CCCCC1 (stereo unspecified) |  | 1.16
Cc1cccc(-n2ncc3c2CCCC3NC(=O)Cc2c(C)noc2C)c1C (stereo unspecified) |  | 0.707
c1csc(CN2CCc3[nH]nc(-c4ccc5c(c4)OCO5)c3C2)n1 | 0.825 | 
COc1cc(CN2CCN(Cc3ccc4c(c3)OCCO4)CC2CCO)cc(OC)c1 (stereo unspecified) |  | 0.732
COc1ccc(CN2Cc3ccccc3OC(c3ccccc3F)C2)c(OC)c1OC (stereo unspecified) | 0.342 | 
O=C(Nc1ccc(Oc2cccnc2)cc1)C1CCCCN1Cc1ccsc1 (stereo unspecified) |  | 0.74
COCCN1C(=O)CC(CC(=O)N(C)Cc2n[nH]c3c2CCCC3)(c2ccccc2OC)C1=O (stereo unspecified) | 0.803 | 
COc1ccc(-n2ccnc2CN2CCCC(N3CCOCC3)C2)cc1 (stereo unspecified) |  | 0.898
COc1ccccc1NC(=O)Nc1ccnn1C1CCN(Cc2cnn(C(C)C)c2)CC1 | 0.887 | 
COCCCN1C(=O)CC(CC(=O)NCc2cnn(-c3ccccc3)n2)(c2ccccc2C)C1=O (stereo unspecified) | 0.662 | 
COc1cc(CN2Cc3ccccc3OC(c3ccccc3OC)C2)ccc1O (stereo unspecified) | 0.014 | 
Cc1ccc(C(=O)N2CCC(CCC(=O)N3CCC(Cc4ccccc4)CC3)CC2)cn1 |  | 0.883
COc1cc(CC2(CCC(=O)NCCc3ccccc3C(F)(F)F)CCC(=O)N2)ccc1F (stereo unspecified) | 0.789 | 
CCN(CCn1cccn1)C(=O)c1ccc2oc(CCc3ccccc3)nc2c1 |  | 0.756
